Reference: the supplement of paper PMC4604168 (melanoma cell lines)
Some of the results follow. Repeats are few or missing, and single values can be far off.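 The apoptosis fraction was the count of cleaved-PARP antibody-stained nuclei relative to all DNA-stained nuclei, imaged in 1,536-well plates. Screening doses were set so most cells survived, and baseline and induced cleaved-PARP levels vary greatly across cell lines.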

How the values were obtained:
Test in all cases: cleaved PARP positive nuclei fraction relative to DMSO control; melanoma cells; higher = more apoptosis
Conditions in all cases: library dose: low library concentration; 72 h
[1] = system: 501Mel
[2] = system: A101D
[3] = system: A2058
[4] = system: A375
[5] = system: C32
[6] = system: CBRC008 (line from a melanoma biopsy)
[7] = system: CBRC013 (line from a melanoma biopsy)
[8] = system: CBRC014 (line from a melanoma biopsy)
[9] = system: CBRC016 (line from a melanoma biopsy)
[10] = system: CBRC017 (line from a melanoma biopsy)
[11] = system: COLO792
[12] = system: COLO800
[13] = system: COLO829
[14] = system: G361
[15] = system: IPC-298
[16] = system: IST-MEL1
[17] = system: LB2518-MEL
[18] = system: LOXIMVI
[19] = system: MEL-HO

Compound	cleaved PARP positive nuclei fraction [1] [%]	cleaved PARP positive nuclei fraction [2] [%]	cleaved PARP positive nuclei fraction [3] [%]	cleaved PARP positive nuclei fraction [4] [%]	cleaved PARP positive nuclei fraction [5] [%]	cleaved PARP positive nuclei fraction [6] [%]	cleaved PARP positive nuclei fraction [7] [%]	cleaved PARP positive nuclei fraction [8] [%]	cleaved PARP positive nuclei fraction [9] [%]	cleaved PARP positive nuclei fraction [10] [%]	cleaved PARP positive nuclei fraction [11] [%]	cleaved PARP positive nuclei fraction [12] [%]	cleaved PARP positive nuclei fraction [13] [%]	cleaved PARP positive nuclei fraction [14] [%]	cleaved PARP positive nuclei fraction [15] [%]	cleaved PARP positive nuclei fraction [16] [%]	cleaved PARP positive nuclei fraction [17] [%]	cleaved PARP positive nuclei fraction [18] [%]	cleaved PARP positive nuclei fraction [19] [%]
COc1cc(Nc2ncc(F)c(Nc3ccc4c(n3)NC(=O)C(C)(C)O4)n2)cc(OC)c1OC [Tamatinib] + O=C(Nc1cccc(Cl)c1)Nc1ncc(CCNc2ncnc3ccsc23)s1 [SNS314] (first compound 0.4 µM, partner dose 0.0008 µM)	460	416	85.4	104	103	94	125	93.5	119	108	199	50.1	133	78.5	52.8	65.2	242	97.5	33.8
Cn1c(Nc2ccc(C(F)(F)F)cc2)nc2cc(Oc3ccnc(-c4ncc(C(F)(F)F)[nH]4)c3)ccc21 + O=C(Nc1cccc(Cl)c1)Nc1ncc(CCNc2ncnc3ccsc23)s1 [SNS314] (first compound 0.08 µM, partner dose 0.0008 µM)	149	118	121	433	261	170	283	93.9	118	86.4	504	74.3	119	406	171	60.1	222	36.4	148
Clc1ccc(Nc2nnc(Cc3ccncc3)c3ccccc23)cc1 [vatalanib] + CO[C@@H]1[C@H](N(C)C(=O)c2ccccc2)C[C@H]2O[C@]1(C)n1c3ccccc3c3c4c(c5c6ccccc6n2c5c31)C(=O)NC4 [Midostaurin] (first compound 2 µM, partner dose 0.08 µM)	68.5	102	132	142	109	145	144	88.6	208	103	109	127	119	75.2	50.2	113	194	81.9	73.5
COc1cc(Nc2ncc(F)c(Nc3ccc4c(n3)NC(=O)C(C)(C)O4)n2)cc(OC)c1OC [Tamatinib] + CC1(C)NC(=O)N(c2ccc([N+](=O)[O-])c(C(F)(F)F)c2)C1=O [nilutamide] (first compound 0.4 µM, partner dose 1 µM)	153	55.3	59.3	193	55.3	168	147	107	37.1	89.6	202	171	115	176	165	34.7	103	68.8	148
COc1cc(Nc2ncc(F)c(Nc3ccc4c(n3)NC(=O)C(C)(C)O4)n2)cc(OC)c1OC [Tamatinib] + COc1cc2c(Oc3ccc4[nH]c(C)cc4c3F)ncnc2cc1OCCCN1CCCC1 [cediranib] (first compound 0.4 µM, partner dose 0.4 µM)	102	205	77.1	122	101	391	130	178	26	109	247	115	64.1	65	111	63.9	137	79.7	69.5
Clc1ccc(Nc2nnc(Cc3ccncc3)c3ccccc23)cc1 [vatalanib] + CN(C)S(=O)(=O)c1ccc2c(c1)/C(=C/c1cc3c([nH]1)CCCC3)C(=O)N2 [SU6656] (first compound 2 µM, partner dose 0.4 µM)	88.2	49.6	27.3	47.9	128	147	180	179	124	101	52.2	57.5	55.2	65.2	32.9	50.4	113	63	72.5
COCC[n+]1c2c(n(Cc3cnccn3)c1C)C(=O)c1ccccc1C2=O + COc1cc2c(Oc3ccc4[nH]c(C)cc4c3F)ncnc2cc1OCCCN1CCCC1 [cediranib] (first compound 0.0004 µM, partner dose 0.4 µM)	83.7	27.7	167	158	23.5	2100	156	92.8	65.5	82.8	191	56.2	104	102	131	80.2	73.7	62.2	63.8
Cn1c(Nc2ccc(C(F)(F)F)cc2)nc2cc(Oc3ccnc(-c4ncc(C(F)(F)F)[nH]4)c3)ccc21 + CN(C)S(=O)(=O)c1ccc2c(c1)/C(=C/c1cc3c([nH]1)CCCC3)C(=O)N2 [SU6656] (first compound 0.08 µM, partner dose 0.4 µM)	145	139	160	90.7	143	112	112	123	121	134	408	95.4	116	408	122	94.6	201	92.6	170
O=C(CCCCCCC(=O)Nc1ccccc1)NO [vorinostat] + CO[C@@H]1[C@H](N(C)C(=O)c2ccccc2)C[C@H]2O[C@]1(C)n1c3ccccc3c3c4c(c5c6ccccc6n2c5c31)C(=O)NC4 [Midostaurin] (first compound 0.08 µM, partner dose 0.08 µM)	105	227	61.6	121	115	79.5	98.7	86	185	99.3	138	97.4	152	130	300	422	56.9	102	211
Clc1ccc(Nc2nnc(Cc3ccncc3)c3ccccc23)cc1 [vatalanib] + COc1cc2c(Oc3ccc4[nH]c(C)cc4c3F)ncnc2cc1OCCCN1CCCC1 [cediranib] (first compound 2 µM, partner dose 0.4 µM)	109	90.4	64.1	45.3	80.6	211	85.8	102	20.8	84.5	118	31.5	119	102	49.8	97.8	291	49.2	74.9
Clc1ccc(Nc2nnc(Cc3ccncc3)c3ccccc23)cc1 [vatalanib] + CC1(C)NC(=O)N(c2ccc([N+](=O)[O-])c(C(F)(F)F)c2)C1=O [nilutamide] (first compound 2 µM, partner dose 1 µM)	80	169	82.4	131	160	171	102	123	143	250	120	160	101	72.6	47.7	48.8	189	77.5	147
CC(=O)c1c(C)c2cnc(Nc3ccc(N4CCNCC4)cn3)nc2n(C2CCCC2)c1=O [palbociclib] + CC1(C)NC(=O)N(c2ccc([N+](=O)[O-])c(C(F)(F)F)c2)C1=O [nilutamide] (first compound 0.04 µM, partner dose 1 µM)	145	57.6	58.4	298	74.5	172	88	117	71.4	110	120	62.8	84.4	124	111	208	242	38.5	157
CC(=O)c1c(C)c2cnc(Nc3ccc(N4CCNCC4)cn3)nc2n(C2CCCC2)c1=O [palbociclib] + O=C(O)c1ccc(-c2c[nH]c3ncc(-c4ccccc4)cc23)cc1C1CCCC1 [GSK650394] (first compound 0.04 µM, partner dose 0.16 µM)	126	194	65.8	153	81.8	225	96	106	171	127	48.4	89.1	51.4	61.8	110	120	229	166	152
O=C(CCCCCCC(=O)Nc1ccccc1)NO [vorinostat] + CC1(C)NC(=O)N(c2ccc([N+](=O)[O-])c(C(F)(F)F)c2)C1=O [nilutamide] (first compound 0.08 µM, partner dose 1 µM)	172	59.6	30.6	36.2	76.7	31.9	79.6	64.2	71.8	97.8	147	46.7	48.2	78.7	42.5	65.6	149	224	137
COCC[n+]1c2c(n(Cc3cnccn3)c1C)C(=O)c1ccccc1C2=O + CN(NC(=O)CC(=O)NN(C)C(=S)c1ccccc1)C(=S)c1ccccc1 [STA4783] (first compound 0.0004 µM, partner dose 0.006 µM)	705	46.2	731	6780	309	1240	130	367	362	268	269	257	416	193	112	28.5	234	40.3	185
Cn1nnc2c(C(N)=O)ncn2c1=O [temozolomide] + Cc1cc(N2CCOCC2)cc2[nH]c(-c3c(NC[C@@H](O)c4cccc(Cl)c4)cc[nH]c3=O)nc12 [BMS536924] (first compound 2 µM, partner dose 0.2 µM)	75	80.2	124	75.7	210	91.9	113	110	129	94.5	135	137	142	124	217	164	42.7	35.3	70.8
Cc1cc(N2CCOCC2)cc2[nH]c(-c3c(NC[C@@H](O)c4cccc(Cl)c4)cc[nH]c3=O)nc12 + CN(NC(=O)CC(=O)NN(C)C(=S)c1ccccc1)C(=S)c1ccccc1 [STA4783] (first compound 0.2 µM, partner dose 0.006 µM)	671	181	118	8020	97.9	4330	252	781	197	491	249	244	211	143	47.5	182	144	73.4	153

A second format for part of the listing above.
Compound,cleaved PARP positive nuclei fraction [1] [%],cleaved PARP positive nuclei fraction [2] [%],cleaved PARP positive nuclei fraction [3] [%],cleaved PARP positive nuclei fraction [4] [%],cleaved PARP positive nuclei fraction [5] [%],cleaved PARP positive nuclei fraction [6] [%],cleaved PARP positive nuclei fraction [7] [%],cleaved PARP positive nuclei fraction [8] [%],cleaved PARP positive nuclei fraction [9] [%],cleaved PARP positive nuclei fraction [10] [%],cleaved PARP positive nuclei fraction [11] [%],cleaved PARP positive nuclei fraction [12] [%],cleaved PARP positive nuclei fraction [13] [%],cleaved PARP positive nuclei fraction [14] [%],cleaved PARP positive nuclei fraction [15] [%],cleaved PARP positive nuclei fraction [16] [%],cleaved PARP positive nuclei fraction [17] [%],cleaved PARP positive nuclei fraction [18] [%],cleaved PARP positive nuclei fraction [19] [%]
"COc1cc(Nc2ncc(F)c(Nc3ccc4c(n3)NC(=O)C(C)(C)O4)n2)cc(OC)c1OC [Tamatinib] + O=C(Nc1cccc(Cl)c1)Nc1ncc(CCNc2ncnc3ccsc23)s1 [SNS314] (first compound 0.4 µM, partner dose 0.0008 µM)",460,416,85.4,104,103,94,125,93.5,119,108,199,50.1,133,78.5,52.8,65.2,242,97.5,33.8
"COc1cc(Nc2ncc(F)c(Nc3ccc4c(n3)NC(=O)C(C)(C)O4)n2)cc(OC)c1OC [Tamatinib] + COc1cc2c(Oc3ccc4[nH]c(C)cc4c3F)ncnc2cc1OCCCN1CCCC1 [cediranib] (first compound 0.4 µM, partner dose 0.4 µM)",102,205,77.1,122,101,391,130,178,26,109,247,115,64.1,65,111,63.9,137,79.7,69.5
"Cn1c(Nc2ccc(C(F)(F)F)cc2)nc2cc(Oc3ccnc(-c4ncc(C(F)(F)F)[nH]4)c3)ccc21 + CN(C)S(=O)(=O)c1ccc2c(c1)/C(=C/c1cc3c([nH]1)CCCC3)C(=O)N2 [SU6656] (first compound 0.08 µM, partner dose 0.4 µM)",145,139,160,90.7,143,112,112,123,121,134,408,95.4,116,408,122,94.6,201,92.6,170
"Cc1cc(N2CCOCC2)cc2[nH]c(-c3c(NC[C@@H](O)c4cccc(Cl)c4)cc[nH]c3=O)nc12 + CN(NC(=O)CC(=O)NN(C)C(=S)c1ccccc1)C(=S)c1ccccc1 [STA4783] (first compound 0.2 µM, partner dose 0.006 µM)",671,181,118,8020,97.9,4330,252,781,197,491,249,244,211,143,47.5,182,144,73.4,153
